Assay results from PMC3069973, “A Fungal Metabolite Asperparaline A Strongly and Selectively Blocks Insect Nicotinic Acetylcholine Receptors: The First Report on the Mode of Action” (PLoS ONE, 2011).

Tested on: GABA-gated chloride channel (native, silkworm larval brain neurons, subunits not identified)

SMILES: NCCCC(=O)O [γ-aminobutyric acid]
- EC50: ~ 30 µM
